Assay results from article PMC8999500.
Results are given in words; binding and its absence hold for the method and conditions named. Some binding calls cover weakened binding; strength is not graded here.

Target: T1, Trm112 (S. cerevisiae) (UniProt P53738)
T1 sequence: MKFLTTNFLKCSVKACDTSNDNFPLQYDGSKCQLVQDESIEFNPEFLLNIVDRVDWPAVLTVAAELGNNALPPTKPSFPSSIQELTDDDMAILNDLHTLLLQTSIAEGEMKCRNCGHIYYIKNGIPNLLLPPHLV
Test: co-purification (Ni-NTA affinity, then SEC); Trm11 and His x 6-Trm112 co-expressed in E. coli; supernatant of disrupted cells on Ni-NTA in buffer A (50 mM Tris-HCl pH 7.6, 5 mM MgCl2, 200 mM KCl, 20 mM imidazole), eluted with 500 mM imidazole; tag cut with HRV3C, second Ni-NTA (flow-through), Superdex 75 in buffer C; fractions assessed by 15% SDS-PAGE

binding: binds
B1: Trm11 (enzyme, UniProt Q12463 1-433)
chain: MKKYLLYMVQVHLNFRRAELESLADLYNLSIDFSQYDANSPFFIVELENDQQAKDWIKRSILTRGIYEYWGQGTTLDELHKDIQRQSNFEQDLQLKFKHSTFKFEFECYKGNSKAKRVEQIETFRYLGFEGKIDMKHPQEVFTVIEEYTPISENVGGKTPTRIYFGRQVQMSNRSAMEKYDLKKRPYKGTTSFEAELSLVSANIAQVKPGTIMYDPFAGTGSFLVAGGHFGSLVIGSDIDGRMIRGKGAQVNISANFKKYGESSQFLDVLTMDFTNNALRNNLVIDTILCDPPYGIRESIKVLGAKDPERFLGKEDMEIDGEKAYLRRDYIPTKKPYALDSLLDDLLQYSSERLPIGGRLAFWMPTANDANIETIVPMHENLELKYNCVQEFNKWSRRLLVYINRGSTFNGSSNHGIKRSKDNFRERYFNNFN
